Results taken from patent US20140186344A1 (TRUSTEES OF BOSTON UNIVERSITY, published 2014).
These are yes or no findings as the source states them, for the method shown. Some binding calls cover weakened binding; strength is not graded here. No end group written: not given here. *: point of attachment. 125I = [125I]*

Sequences of proteins named here, by UniProt entry; tags and fusion partners are left off. Residues count along the entry.
UniProt P05305, residues 53-73: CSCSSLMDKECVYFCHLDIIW

How the values were obtained:
[1] = molecular target: T1, Dahl R Dear S44P/M74T variant (rat Dual Endothelin-1/Angiotensin II Receptor) (rat (Dahl R/JRHsd)) (UniProt D3ZGZ6); assay: direct radioligand binding and west-western blot
T1 sequence: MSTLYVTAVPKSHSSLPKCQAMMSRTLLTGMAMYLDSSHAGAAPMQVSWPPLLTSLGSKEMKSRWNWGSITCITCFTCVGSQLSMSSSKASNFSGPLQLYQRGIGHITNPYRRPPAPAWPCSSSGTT

[2] = molecular target: T1, Dahl R Dear S44P/M74T variant (rat Dual Endothelin-1/Angiotensin II Receptor) (rat (Dahl R/JRHsd)); assay: west-western blot of kidney and Cos1 transfectant membranes

- binding [1]: binds
- binding [2]: binds
B1: [125I]Tyr13-endothelin-1 (peptide, UniProt P05305 53-73, looked up)
peptide: CSCSSLMDKECVY(125I)FCHLDIIW
modifications: ends and bridges not checked
notes: mature; Radiolabelled ligand; also called ET-1
